Reference: the supplement of paper PMC10849652
The list shows a part of the results.

By UniProt entry, the sequences of proteins in these tests, tags left out. Where a name states a change or a piece, a line headed by the entry shows the natural chain unless it says otherwise.
UniProt Q96FT9: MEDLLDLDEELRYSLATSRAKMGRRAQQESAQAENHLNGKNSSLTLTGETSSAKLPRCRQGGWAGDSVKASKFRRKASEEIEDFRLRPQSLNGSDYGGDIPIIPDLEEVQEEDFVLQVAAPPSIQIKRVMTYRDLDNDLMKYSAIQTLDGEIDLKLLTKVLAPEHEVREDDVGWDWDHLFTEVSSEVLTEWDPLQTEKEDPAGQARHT
UniProt P80217: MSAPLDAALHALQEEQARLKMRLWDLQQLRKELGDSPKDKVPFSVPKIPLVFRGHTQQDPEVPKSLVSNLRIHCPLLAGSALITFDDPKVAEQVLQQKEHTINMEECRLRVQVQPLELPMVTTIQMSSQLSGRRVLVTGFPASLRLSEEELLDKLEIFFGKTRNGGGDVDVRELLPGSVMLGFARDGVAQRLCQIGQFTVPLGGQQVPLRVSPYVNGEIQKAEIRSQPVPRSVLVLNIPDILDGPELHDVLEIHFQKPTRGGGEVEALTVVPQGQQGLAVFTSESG
UniProt Q01628, whole entry, looked up: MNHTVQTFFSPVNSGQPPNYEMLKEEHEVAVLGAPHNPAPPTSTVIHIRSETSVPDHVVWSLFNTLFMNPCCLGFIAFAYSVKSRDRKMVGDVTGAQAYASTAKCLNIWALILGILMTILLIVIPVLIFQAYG
UniProt P20839, whole entry, looked up: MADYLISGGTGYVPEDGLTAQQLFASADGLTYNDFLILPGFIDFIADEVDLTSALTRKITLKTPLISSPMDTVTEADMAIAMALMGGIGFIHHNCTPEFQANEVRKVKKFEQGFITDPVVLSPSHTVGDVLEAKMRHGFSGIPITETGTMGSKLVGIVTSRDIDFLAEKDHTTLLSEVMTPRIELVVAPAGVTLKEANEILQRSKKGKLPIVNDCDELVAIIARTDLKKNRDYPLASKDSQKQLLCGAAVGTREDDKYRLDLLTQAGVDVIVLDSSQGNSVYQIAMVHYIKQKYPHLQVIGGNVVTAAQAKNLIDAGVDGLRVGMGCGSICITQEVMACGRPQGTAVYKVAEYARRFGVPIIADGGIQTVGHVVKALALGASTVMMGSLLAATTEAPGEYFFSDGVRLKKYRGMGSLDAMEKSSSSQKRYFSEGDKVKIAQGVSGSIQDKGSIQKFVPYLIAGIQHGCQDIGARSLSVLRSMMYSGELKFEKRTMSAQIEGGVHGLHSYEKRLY
UniProt C9J406: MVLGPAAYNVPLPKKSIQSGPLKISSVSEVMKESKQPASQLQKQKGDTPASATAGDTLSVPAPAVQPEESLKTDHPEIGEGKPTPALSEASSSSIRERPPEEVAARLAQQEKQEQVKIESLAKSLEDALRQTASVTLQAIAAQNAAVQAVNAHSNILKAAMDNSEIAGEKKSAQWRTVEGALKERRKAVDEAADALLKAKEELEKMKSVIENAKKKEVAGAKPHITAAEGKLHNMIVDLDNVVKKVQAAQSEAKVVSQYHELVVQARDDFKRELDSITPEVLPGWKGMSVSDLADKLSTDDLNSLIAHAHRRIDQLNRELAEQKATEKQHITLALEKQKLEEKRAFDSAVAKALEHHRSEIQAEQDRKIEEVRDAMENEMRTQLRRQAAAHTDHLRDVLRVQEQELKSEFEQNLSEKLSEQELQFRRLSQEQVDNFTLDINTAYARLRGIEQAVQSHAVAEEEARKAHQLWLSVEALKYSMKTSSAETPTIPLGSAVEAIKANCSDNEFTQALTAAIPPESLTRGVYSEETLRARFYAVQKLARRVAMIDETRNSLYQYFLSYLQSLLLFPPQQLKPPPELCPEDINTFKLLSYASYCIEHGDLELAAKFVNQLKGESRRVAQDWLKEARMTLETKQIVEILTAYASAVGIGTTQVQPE
UniProt Q9H0C8: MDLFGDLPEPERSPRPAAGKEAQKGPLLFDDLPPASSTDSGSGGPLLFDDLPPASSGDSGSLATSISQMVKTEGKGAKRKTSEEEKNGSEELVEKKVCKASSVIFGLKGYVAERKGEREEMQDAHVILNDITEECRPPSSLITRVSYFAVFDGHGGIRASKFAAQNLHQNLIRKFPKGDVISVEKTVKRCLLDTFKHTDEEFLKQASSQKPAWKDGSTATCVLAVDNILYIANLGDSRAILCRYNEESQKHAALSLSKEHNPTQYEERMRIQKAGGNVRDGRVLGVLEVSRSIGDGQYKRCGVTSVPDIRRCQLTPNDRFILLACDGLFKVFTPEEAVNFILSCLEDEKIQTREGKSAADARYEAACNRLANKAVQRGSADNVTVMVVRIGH
UniProt P38646: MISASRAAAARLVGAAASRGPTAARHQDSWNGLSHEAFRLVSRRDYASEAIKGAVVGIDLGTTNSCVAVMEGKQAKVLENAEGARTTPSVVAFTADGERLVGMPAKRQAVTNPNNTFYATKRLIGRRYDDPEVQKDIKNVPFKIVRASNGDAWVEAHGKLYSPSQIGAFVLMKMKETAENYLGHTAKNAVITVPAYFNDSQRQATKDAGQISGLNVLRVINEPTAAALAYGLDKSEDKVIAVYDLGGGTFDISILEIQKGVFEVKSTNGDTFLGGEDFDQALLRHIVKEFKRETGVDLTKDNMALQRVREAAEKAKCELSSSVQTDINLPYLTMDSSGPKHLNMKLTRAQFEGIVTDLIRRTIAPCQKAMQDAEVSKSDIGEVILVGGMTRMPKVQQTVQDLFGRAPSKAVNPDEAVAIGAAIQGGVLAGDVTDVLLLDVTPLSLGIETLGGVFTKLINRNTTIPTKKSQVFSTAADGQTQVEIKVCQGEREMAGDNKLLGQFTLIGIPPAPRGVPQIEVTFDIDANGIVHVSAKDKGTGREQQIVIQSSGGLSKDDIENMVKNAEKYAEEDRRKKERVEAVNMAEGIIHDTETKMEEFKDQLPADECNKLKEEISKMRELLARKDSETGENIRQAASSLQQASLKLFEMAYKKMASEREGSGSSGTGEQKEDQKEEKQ
UniProt P29218: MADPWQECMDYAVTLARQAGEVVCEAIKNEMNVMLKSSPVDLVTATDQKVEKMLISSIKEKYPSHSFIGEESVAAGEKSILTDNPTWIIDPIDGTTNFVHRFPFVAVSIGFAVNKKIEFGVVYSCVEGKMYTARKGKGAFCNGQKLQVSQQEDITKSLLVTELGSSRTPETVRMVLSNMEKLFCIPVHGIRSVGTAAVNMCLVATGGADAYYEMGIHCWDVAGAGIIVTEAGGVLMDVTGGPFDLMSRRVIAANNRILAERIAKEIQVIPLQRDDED
UniProt Q8IY31, whole entry, looked up: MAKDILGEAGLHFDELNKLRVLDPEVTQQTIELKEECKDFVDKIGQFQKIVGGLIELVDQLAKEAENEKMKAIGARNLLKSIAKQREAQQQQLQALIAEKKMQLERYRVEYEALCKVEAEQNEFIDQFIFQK
UniProt Q9NX55: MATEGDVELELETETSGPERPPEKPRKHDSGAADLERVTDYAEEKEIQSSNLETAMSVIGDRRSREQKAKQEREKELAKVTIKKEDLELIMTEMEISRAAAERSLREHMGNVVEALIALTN
UniProt Q9NV31: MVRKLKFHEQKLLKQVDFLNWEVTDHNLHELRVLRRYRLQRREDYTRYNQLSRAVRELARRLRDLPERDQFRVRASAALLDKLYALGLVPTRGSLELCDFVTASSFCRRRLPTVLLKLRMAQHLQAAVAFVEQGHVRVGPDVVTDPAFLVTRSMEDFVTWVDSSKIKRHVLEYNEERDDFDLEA
UniProt Q9UNL4, whole entry, looked up: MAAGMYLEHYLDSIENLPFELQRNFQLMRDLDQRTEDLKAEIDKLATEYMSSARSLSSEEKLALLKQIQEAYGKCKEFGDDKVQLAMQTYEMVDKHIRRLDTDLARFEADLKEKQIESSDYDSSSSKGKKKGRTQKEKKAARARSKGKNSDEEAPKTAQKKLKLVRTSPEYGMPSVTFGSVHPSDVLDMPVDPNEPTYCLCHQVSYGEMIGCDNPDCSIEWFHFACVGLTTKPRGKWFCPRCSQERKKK
UniProt P49441: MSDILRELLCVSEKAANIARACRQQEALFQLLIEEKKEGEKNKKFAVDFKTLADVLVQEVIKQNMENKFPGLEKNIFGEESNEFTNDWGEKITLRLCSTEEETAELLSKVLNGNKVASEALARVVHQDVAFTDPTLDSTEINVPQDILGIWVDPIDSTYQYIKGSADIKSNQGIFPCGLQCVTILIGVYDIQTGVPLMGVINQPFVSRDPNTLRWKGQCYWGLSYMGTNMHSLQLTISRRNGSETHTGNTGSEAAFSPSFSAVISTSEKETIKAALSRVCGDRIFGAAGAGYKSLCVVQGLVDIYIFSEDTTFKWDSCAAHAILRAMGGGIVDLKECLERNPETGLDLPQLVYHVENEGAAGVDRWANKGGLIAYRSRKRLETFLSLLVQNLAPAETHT
UniProt Q70UQ0: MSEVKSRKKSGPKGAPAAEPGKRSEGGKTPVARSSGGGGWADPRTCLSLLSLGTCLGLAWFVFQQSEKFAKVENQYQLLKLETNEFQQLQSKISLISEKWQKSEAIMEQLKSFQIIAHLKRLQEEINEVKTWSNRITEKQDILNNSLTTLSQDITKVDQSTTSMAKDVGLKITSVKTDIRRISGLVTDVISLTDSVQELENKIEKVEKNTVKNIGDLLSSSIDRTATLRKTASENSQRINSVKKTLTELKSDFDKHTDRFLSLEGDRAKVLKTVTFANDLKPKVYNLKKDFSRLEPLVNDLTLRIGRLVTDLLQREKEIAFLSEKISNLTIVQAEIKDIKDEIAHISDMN
UniProt Q9NVR2, whole entry, looked up: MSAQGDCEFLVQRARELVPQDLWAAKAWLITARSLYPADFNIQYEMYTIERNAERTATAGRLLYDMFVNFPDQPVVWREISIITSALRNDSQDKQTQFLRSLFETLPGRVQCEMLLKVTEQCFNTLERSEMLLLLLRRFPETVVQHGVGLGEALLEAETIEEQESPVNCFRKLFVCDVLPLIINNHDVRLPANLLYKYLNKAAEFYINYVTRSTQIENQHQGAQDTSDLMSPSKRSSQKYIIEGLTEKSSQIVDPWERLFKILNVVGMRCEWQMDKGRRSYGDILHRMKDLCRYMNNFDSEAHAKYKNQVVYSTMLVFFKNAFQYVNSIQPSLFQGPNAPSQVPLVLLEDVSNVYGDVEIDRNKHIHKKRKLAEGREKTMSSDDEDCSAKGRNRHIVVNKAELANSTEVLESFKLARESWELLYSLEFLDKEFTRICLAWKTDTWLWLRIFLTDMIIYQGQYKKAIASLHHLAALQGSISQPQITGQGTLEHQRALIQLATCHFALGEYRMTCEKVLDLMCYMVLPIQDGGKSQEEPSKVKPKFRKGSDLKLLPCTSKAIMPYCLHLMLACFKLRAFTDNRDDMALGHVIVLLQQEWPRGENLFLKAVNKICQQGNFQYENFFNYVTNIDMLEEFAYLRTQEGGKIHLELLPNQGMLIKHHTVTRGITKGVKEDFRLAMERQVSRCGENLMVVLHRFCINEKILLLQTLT
UniProt Q9NX62: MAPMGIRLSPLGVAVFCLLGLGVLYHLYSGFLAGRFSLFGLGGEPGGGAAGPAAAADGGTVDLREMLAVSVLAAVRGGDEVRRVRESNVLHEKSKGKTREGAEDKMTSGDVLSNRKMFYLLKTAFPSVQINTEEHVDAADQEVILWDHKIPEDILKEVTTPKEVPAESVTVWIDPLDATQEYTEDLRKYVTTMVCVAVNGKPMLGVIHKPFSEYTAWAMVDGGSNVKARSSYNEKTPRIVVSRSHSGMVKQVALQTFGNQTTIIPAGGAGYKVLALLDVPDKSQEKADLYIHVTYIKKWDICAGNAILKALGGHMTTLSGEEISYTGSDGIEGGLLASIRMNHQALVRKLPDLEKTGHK
UniProt Q9UMF0: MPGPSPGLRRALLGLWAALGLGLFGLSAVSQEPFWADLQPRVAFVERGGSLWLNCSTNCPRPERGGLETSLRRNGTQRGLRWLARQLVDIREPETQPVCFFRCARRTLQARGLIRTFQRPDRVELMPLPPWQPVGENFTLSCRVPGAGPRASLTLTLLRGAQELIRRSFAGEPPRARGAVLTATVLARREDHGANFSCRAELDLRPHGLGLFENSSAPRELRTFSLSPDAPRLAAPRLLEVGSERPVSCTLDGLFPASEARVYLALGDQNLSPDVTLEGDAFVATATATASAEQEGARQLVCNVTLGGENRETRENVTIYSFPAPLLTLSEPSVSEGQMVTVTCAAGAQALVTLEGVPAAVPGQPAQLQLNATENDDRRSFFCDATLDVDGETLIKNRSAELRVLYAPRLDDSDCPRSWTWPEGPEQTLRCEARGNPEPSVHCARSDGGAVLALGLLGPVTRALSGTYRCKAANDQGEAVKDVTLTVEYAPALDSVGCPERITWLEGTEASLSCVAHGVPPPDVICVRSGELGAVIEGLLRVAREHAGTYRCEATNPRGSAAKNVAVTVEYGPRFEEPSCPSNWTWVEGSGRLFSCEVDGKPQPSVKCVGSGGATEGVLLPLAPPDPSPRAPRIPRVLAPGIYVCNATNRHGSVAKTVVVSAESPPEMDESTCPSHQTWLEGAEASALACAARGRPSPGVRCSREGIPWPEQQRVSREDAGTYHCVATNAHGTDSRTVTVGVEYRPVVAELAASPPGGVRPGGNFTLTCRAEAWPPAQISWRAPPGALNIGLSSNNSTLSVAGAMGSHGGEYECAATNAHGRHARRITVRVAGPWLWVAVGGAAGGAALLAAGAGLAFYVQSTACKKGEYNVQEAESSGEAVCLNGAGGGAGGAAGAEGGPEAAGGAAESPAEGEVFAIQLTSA

How the values were obtained:
Assay in all cases: log2 fold change, soluble protein after heating vs DMSO (PISA); higher = thermal stabilisation; K562 lysate, 10 uM; active = over 0.2 and 3.5 SD of the protein, either way, in both replicates (recomputed)
[1] = compound: C1=CC=C(C=C1)[C@H](COC2=CC3=C(C=C2)NC(=O)N3)NC(=O)C4=CC=CN(C4=O)CC5=CC(=C(C=C5)F)F
Summary of the method: (§1)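 To prepare the extract, K562 pellets were dounce-homogenised in PBS pH 7.4 with 1 mM MgCl2, giving crude material at 1 mg/mL protein. This was treated with 10 μM compound for 30 min, then heated in aliquots for 3 min over 48°C-58°C before pooling and addition of NP-40 to 0.5% at 4°C. Centrifugation at 21,000xg for 90 min left soluble protein in the supernatant, which TMTpro 16plex LC-MS/MS quantified with equalised channel sums. Results are log-two fold changes in thermal stability compared with solvent controls, from duplicates.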

[2] = compound: CC1=C(SC2=C1C(=N[C@H](C3=NN=C(N32)C)CC(=O)N)C4=CC=C(C=C4)Cl)C
Summary of the method: as §1

[3] = compound: CC1=C2C(=CC=C1)N=C(N(C2=O)C3=CC=CC=C3C)CN4C=NC5=C(N=CN=C54)N
Summary of the method: as §1

[4] = compound: Cc1sc2c(c1C)C(c1ccc(Cl)cc1)=N[C@@H](CC(=O)OC(C)(C)C)c1nnc(C)n1-2
Summary of the method: as §1

[5] = compound: c1ccc([C@@H]2C[C@H]2NC2CCNCC2)cc1
Summary of the method: as §1

Measured: log2 fold change

IFT43 (UniProt Q96FT9)
inactive: [1] -0.147 | [2] 0.065 | [3] 0.248 | [4] -0.051

IFI35 isoform 2 (UniProt P80217)
inactive: [1] 0.006 | [2] 0.014 | [3] 0.004 | [4] 0.014 | [5] -0.052

IDH3G (UniProt P51553)
inactive: [1] 0.018 | [2] 0.031 | [3] -0.031 | [4] 0.062 | [5] 0.008

IFITM3 (UniProt Q01628)
inactive: [1] -0.011 | [2] -0.078 | [3] -0.118 | [4] -0.088 | [5] 0.026

Taken from the listing (two entries):
IFI35 isoform 2 (UniProt P80217)
inactive: [1] 0.006 | [2] 0.014 | [3] 0.004 | [4] 0.014 | [5] -0.052

IDH3G (UniProt P51553)
inactive: [1] 0.018 | [2] 0.031 | [3] -0.031 | [4] 0.062 | [5] 0.008

Next results follow.

IMPDH1 isoform 6 (UniProt P20839)
inactive: [1] -0.008 | [2] 0.025 | [3] -0.009 | [4] 0.053 | [5] -0.051

IMMT (UniProt C9J406)
inactive: [1] -0.055 | [2] 0.041 | [3] 0.049 | [4] 0.077 | [5] -0.056

ILKAP (UniProt Q9H0C8)
inactive: [1] -0.004 | [2] -0.004 | [3] -0.013 | [4] 0.013 | [5] 0.009

HSPA9 (UniProt P38646)
inactive: [1] 0.007 | [2] -0.016 | [3] 0.023 | [4] 0 | [5] -0.009

IKZF4 (UniProt Q9H2S9)
inactive: [1] 0.162 | [2] 0.327

IFI30 (UniProt P13284)
inactive: [1] -0.047 | [2] -0.053 | [3] 0.041 | [4] -0.092 | [5] 0.019

IARS2 (UniProt Q9NSE4)
inactive: [1] 0.004 | [2] 0.013 | [3] -0.006 | [4] 0.028 | [5] 0.119

IMPA1 isoform 3 (UniProt P29218)
inactive: [1] 0.003 | [2] -0.03 | [3] -0.023 | [4] -0.003 | [5] 0.026

IFT20 isoform 2 (UniProt Q8IY31)
inactive: [1] 0.004 | [2] -0.024 | [3] -0.088 | [4] -0.046 | [5] -0.117

HYPK (UniProt Q9NX55)
inactive: [1] -0.029 | [2] -0.091 | [3] -0.056 | [4] -0.025 | [5] 0.033

HTR1F (UniProt P30939)
inactive: [1] -0.007 | [2] -0.045 | [3] -0.071

IMP3 (UniProt Q9NV31)
inactive: [1] -0.023 | [2] 0.045 | [3] 0.08 | [4] -0.007 | [5] -0.057

ICMT (UniProt O60725)
inactive: [1] 0.008 | [2] 0.034 | [3] 0.036 | [4] -0.166

ING4 (UniProt Q9UNL4)
inactive: [1] -0.25 | [2] -0.307

INPP1 (UniProt P49441)
inactive: [1] 0.062 | [2] 0.066 | [3] 0.051 | [4] 0.009 | [5] 0.015

IKBIP (UniProt Q70UQ0)
inactive: [1] 0 | [2] -0.005 | [3] 0.05 | [4] -0.026 | [5] -0.019

INTS10 (UniProt Q9NVR2)
inactive: [1] -0.015 | [2] -0.057 | [3] 0.023 | [4] -0.077 | [5] -0.003

IMPAD1 (UniProt Q9NX62)
inactive: [1] 0.056 | [2] 0.034 | [3] 0.044 | [4] -0.026 | [5] -0.008

ICAM5 (UniProt Q9UMF0)
inactive: [1] 0.082 | [2] 0.045 | [3] -0.079 | [4] 0.078 | [5] -0.068

IGF2R (UniProt P11717)
inactive: [1] 0.029 | [2] -0.006 | [3] 0.018 | [4] -0.008 | [5] -0.053

ICOSLG isoform 2 (UniProt O75144)
inactive: [1] -0.146 | [2] -0.018

ILK (UniProt Q13418)
inactive: [1] -0.009 | [2] -0.019 | [3] 0.004 | [4] 0.027 | [5] -0.002
